In US20130045219A1 (UCB, published 2013) one finds binding data, which are given here for two molecules.

For test [1], the target named is soluble human CD154 protein (extracellular domain) (human) (UniProt P29965). Put plainly: Biacore (SPR), sequential injections: 342 FL captured, ECD, 342 Fab', then 5c8 Fab'; concentrations not given (Example 10).
In test [2] the target is T1, CD154 expressed on D1.1 Jurkat cells (UniProt P29965 1-261, limits assumed).
T1 sequence (looked up): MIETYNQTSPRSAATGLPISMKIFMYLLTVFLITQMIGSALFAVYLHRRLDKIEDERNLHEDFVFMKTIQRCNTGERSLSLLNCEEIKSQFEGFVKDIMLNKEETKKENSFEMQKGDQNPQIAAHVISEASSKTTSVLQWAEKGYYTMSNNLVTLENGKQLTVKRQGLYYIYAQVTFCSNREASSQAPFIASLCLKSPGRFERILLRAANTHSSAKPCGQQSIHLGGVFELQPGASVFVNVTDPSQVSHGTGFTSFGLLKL
Put plainly: flow cytometry: Alexa Fluor 488-labeled 342 Fab' at 300 ng/ml on CD154-expressing D1.1 Jurkat cells (Example 9). On the technique in general: A flow cytometer gives signals particle by particle.

Test [3] deals with T2, Myc-tagged CD154 (UniProt P29965 116-261, limits assumed).
T2 construct: Captured on the ELISA plate by anti-Myc antibody 9E10; The order of tag and CD154 is not known; also called CD40L; not shown: Myc tag
T2 sequence (looked up): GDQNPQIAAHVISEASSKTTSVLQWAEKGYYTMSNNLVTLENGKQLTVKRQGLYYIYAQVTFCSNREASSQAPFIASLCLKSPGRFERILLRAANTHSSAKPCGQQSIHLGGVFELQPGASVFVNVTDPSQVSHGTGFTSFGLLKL
Put plainly: ELISA: Myc-tagged CD154 captured on anti-Myc antibody 9E10, biotin 342 Fab' titrated, streptavidin-HRP detection (Example 14). On the procedure: In this assay, anti-Myc antibody 9E10 was coated onto an ELISA plate. Myc-tagged CD154 was captured by this antibody. […] The plate was washed and the amount of biotinylated 5c8 Fab bound was determined using streptavidin HRP as a secondary. The signal was graphed and fit using a either a one site binding hyperbola or a two site binding hyperbola curve fit in Prism software (Graph Pad).
A titration of biotin 5c8 Fab′ on CD154 to determine the appropriate concentration for cross-blocking analysis was also performed (FIG. 29B).

Test [4] deals with T2, Myc-tagged CD154. Put plainly: competition ELISA on Myc-tagged CD154 captured by 9E10: unlabeled ch342 Fab' varied against 1 nM biotin 342 Fab' or 0.3 nM biotin 5c8 Fab' (Example 14).

Results are given in words; binding and its absence hold for the method and conditions named. Some binding calls cover weakened binding; strength is not graded here.

B1: 342 Fab′ (Fab, V domains shown)
VH: EVQLVESGGGLVQPGGSLRLSCAVSGFSSTNYHVHWVRQAPGKGLEWMGVIWGDGDTSYNSVLKSRFTISRDTSKNTVYLQMNSLRAEDTAVYYCARQLTHYYVLAAWGQGTLVTVSS
VL: DIQMTQSPSSLSASVGDRVTITCRASEDLYYNLAWYQRKPGKAPKLLIYDTYRLADGVPSRFSGSGSGTDYTLTISSLQPEDFASYYCQQYYKFPFTFGQGTKVEIKR
In the case of B1, the binding result (in test [1]; in test [2]; in the test with Myc-tagged CD154 [3]) was “binds” in each case.

B2: chimeric 342 Fab′ (unlabeled 342 Fab′ of FIG. 29C) (Fab, V domains shown)
VH: QVQLKESGPGLVQPSETLSLTCTVSGFSSTNYHVHWVRQPPGKSLEWMGVIWGDGDTSYNSVLKSRLSITRDTSRSQVFLKMSSLQTEDTATYYCARQLTHYYVLAAWGQGASVTVS
VL: DIQMTQSPASLSASLGETVTVECRASEDLYYNLAWYQRKPGNSPQLLIYDTYRLADGVPSRFSGSGSGTQYSLKINTLPSGDVASYFCQQYYKFPFTFGSGTKLELK
notes: also called ch342 Fab
Regarding B2, the binding result with Myc-tagged CD154 [4] is “binds”.
